Results on one molecule are retold here after patent US20110306060A1.

Chains of the proteins cited; added tags and fusions are not shown. Residues count along the entry.
UniProt Q8NBP7, residues 31-692: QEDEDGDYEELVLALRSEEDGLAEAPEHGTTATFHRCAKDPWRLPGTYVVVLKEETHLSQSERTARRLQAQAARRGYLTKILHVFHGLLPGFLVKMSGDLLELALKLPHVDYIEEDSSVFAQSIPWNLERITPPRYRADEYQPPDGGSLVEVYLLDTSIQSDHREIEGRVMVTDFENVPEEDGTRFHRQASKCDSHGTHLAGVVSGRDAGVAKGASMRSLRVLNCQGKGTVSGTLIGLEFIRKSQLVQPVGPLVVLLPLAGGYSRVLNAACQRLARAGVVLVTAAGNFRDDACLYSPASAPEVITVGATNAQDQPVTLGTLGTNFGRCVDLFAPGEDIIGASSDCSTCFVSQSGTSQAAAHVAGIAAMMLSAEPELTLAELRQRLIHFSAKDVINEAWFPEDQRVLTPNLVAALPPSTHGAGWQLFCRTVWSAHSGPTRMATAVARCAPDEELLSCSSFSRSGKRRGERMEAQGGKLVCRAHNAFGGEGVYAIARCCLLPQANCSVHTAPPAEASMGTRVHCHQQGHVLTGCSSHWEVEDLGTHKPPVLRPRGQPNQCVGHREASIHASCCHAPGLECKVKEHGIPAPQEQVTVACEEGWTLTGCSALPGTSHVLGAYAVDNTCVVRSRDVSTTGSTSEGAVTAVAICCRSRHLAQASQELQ

No constants are given. Whether binding was seen depends on the method and setting. Some binding calls cover weakened binding; strength is not graded here.

The assay deals with human PCSK9 (purified human PCSK9 protein) (human) (UniProt Q8NBP7). Briefly: DELFIA sandwich immunoassay; E07 coated as capture antibody.

B1: PCSK9_5_CX3_E07 (E07 coating/capture antibody) (antibody, human IgG2, lambda, V domains shown)
VH: QVQLVESGGGLVQPGGSLRLSCAASGFTFSDHWMHWVRQAPGKGLEWVSYIDYYGSNTHYADSVKGRFTISRDNSKNTLYLQMNSLRAEDTAVYYCARMLYGWNYGVFDYWGQGTLVTVSS
VL: DIELTQPPSVSVAPGQTARISCSGDSLRDKYVHWYQQKPGQAPVVVIYYDTNRPSGIPERFSGSNSGNTATLTISGTQAEDEADYYCAAYTRSIYVFGGGTKLTVLG
Take B1: the binding result is “binds”.
